These are yes or no findings as the source states them, for the method shown. Binding seen in cells or lysates may run through a third protein. Some results given as binding are weak or reduced against the parent protein; the word gives no strength. Each block holds one substance with its values, some of them ahead of it.
Key:
exogenous ACTN1 (human) = exogenous ACTN1 (human) (UniProt P12814); assay: co-IP; exogenous co-IP in HNSCC cells; RIPA lysate, primary antibody overnight at 4 °C, magnetic beads, western blot
[1] = molecular target: calponin-homology 1 domain of ACTN1 (human) (UniProt P12814); assay: co-IP; domain constructs: MYH9 domains with ACTN1 in SCC-1cisR cells, ACTN1 domains with MYH9 in SCC-1 cells; RIPA lysate, magnetic beads, western blot
[2] = molecular target: alpha-actinin 1 (ACTN1) (human (endogenous in SCC-1cisR)) (UniProt P12814); assay: co-IP; SCC-1cisR cells (a further panel in Supplementary Fig. 7B); RIPA lysate, primary antibody overnight at 4 °C, magnetic beads 6 h at 4 °C, western blot
[3] = molecular target: alpha-actinin 1 (ACTN1) (human (endogenous in SCC-1cisR)) (UniProt P12814); assay: co-IP; endogenous co-IP in HNSCC cells; RIPA lysate, primary antibody overnight at 4 °C, magnetic beads, western blot
[4] = molecular target: GSK-3β (human (endogenous in HNSCC cell lines)) (UniProt P49841); assay: co-IP; MYH9 with GSK-3β in HNSCC cells with ACTN1 overexpression or ACTN1 depletion; RIPA lysate, magnetic beads, western blot

Sequences of proteins named here, by UniProt entry; tags and fusion partners are left off. A change or cut given only in a name is not applied to a line headed by its entry.
UniProt P49841: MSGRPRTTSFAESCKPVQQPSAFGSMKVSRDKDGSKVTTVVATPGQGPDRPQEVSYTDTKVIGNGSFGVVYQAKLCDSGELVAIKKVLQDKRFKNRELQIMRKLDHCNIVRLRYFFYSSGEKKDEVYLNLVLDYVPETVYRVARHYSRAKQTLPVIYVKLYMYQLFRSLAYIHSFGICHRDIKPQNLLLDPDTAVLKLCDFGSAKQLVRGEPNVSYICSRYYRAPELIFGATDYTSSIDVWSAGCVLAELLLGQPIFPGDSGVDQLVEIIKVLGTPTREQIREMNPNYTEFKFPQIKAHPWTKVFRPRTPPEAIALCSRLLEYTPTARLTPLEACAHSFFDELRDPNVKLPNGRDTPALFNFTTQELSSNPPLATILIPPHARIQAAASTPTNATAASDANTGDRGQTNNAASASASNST
UniProt P35579: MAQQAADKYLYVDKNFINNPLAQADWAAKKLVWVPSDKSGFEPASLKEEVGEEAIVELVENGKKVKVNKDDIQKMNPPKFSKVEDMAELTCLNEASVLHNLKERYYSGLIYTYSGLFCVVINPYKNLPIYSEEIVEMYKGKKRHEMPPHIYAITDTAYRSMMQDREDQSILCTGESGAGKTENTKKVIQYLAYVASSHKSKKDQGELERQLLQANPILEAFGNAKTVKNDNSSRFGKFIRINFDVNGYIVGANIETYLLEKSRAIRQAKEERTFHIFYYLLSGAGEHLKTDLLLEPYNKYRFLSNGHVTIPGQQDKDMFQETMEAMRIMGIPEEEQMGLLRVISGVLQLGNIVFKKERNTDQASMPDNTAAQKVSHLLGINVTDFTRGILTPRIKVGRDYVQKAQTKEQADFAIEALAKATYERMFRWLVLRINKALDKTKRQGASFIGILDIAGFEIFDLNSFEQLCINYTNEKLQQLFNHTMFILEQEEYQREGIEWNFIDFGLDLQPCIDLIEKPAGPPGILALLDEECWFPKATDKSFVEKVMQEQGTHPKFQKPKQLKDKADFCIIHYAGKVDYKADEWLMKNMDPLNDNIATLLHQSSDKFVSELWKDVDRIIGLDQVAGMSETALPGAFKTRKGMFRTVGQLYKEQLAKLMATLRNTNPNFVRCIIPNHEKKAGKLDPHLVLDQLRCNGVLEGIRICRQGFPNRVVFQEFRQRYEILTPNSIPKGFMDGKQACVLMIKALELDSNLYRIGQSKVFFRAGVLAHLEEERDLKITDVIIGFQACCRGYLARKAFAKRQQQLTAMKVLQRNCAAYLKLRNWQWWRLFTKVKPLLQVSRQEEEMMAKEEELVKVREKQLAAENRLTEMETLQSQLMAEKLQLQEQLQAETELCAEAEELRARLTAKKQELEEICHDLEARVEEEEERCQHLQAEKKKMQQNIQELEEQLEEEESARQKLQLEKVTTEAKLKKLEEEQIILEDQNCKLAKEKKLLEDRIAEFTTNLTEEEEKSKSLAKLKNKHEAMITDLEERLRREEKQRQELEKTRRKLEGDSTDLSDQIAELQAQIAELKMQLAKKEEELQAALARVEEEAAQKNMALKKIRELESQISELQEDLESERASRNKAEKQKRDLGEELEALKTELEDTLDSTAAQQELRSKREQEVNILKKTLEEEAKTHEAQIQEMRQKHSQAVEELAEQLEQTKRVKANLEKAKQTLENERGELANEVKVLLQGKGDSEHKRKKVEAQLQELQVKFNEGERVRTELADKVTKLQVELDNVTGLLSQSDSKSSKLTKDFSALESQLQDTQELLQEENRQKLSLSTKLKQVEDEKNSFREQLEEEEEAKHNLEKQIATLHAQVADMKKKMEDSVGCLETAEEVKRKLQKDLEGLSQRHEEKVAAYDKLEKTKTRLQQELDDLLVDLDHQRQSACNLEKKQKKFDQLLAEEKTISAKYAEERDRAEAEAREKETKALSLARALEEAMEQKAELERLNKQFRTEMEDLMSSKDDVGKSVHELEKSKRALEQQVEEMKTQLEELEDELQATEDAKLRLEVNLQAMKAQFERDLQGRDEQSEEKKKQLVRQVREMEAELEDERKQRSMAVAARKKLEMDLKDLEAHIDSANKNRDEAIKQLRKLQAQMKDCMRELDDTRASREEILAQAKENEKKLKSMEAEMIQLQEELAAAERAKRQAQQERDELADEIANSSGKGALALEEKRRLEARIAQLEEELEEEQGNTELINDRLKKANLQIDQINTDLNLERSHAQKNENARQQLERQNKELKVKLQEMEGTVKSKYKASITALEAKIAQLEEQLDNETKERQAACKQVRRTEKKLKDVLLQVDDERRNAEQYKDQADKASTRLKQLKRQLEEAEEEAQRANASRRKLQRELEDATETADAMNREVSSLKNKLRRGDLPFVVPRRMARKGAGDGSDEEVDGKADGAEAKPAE
UniProt P05556: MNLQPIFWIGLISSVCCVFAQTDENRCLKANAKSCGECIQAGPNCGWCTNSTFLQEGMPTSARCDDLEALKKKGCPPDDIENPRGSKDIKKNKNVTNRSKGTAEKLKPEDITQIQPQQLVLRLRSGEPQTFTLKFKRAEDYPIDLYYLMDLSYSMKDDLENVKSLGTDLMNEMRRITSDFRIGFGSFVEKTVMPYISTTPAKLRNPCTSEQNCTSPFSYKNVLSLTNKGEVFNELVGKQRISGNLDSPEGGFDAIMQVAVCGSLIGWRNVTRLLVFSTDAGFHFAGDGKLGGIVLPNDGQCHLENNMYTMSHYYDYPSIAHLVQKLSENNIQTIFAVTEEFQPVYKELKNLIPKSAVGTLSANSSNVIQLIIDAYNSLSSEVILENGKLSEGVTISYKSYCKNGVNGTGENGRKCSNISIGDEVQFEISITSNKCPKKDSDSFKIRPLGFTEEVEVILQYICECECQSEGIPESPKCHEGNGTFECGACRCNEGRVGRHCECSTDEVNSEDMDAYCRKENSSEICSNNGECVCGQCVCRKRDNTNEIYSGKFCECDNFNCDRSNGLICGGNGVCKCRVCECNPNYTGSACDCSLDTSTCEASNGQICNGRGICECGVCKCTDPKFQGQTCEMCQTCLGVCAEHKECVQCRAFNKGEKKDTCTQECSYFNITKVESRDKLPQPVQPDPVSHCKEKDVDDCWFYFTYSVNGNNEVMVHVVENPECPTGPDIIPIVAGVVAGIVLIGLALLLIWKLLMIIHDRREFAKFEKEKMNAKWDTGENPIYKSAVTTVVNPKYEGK

binding (exogenous ACTN1 (human)): binds
binding [1]: binds
Substance: exogenous MYH9 (from UniProt P35579 1-1960)

binding [2]: binds
Substance: integrin β1 (from UniProt P05556 21-798) (receptor)

binding [3]: binds
binding [4]: binds
Substance: myosin heavy chain 9 (MYH9) (from UniProt P35579 1-1960)
